Reference: patent publication US7449492B2, “Therapeutic agents—I” (priority 2000, dated 2008)
Some of these results come from one statement about several compounds together. At least one structure is not confirmed: it was looked up by name or label, or the drawing left a doubt.

Legend:
[1] = tested on: mouse melanoma B16 tumor; assay: Topical treatment of s.c. B16 tumor on nude mice; type: in vivo; settings: tinctures in acetone, ethanol or isopropanol, 10 million bp units per mL; 2-5 μL daily for 3 days
[2] = tested on: CMV promoter; assay: CMV promoter activity, adenovirus-5 β-galactosidase construct in MM96L cells; type: cell-based, human; settings: 100 ng/mL, 20 hr

SMILES | Efficacy, sites cured [1] | induction of CMV promoter activity [2]
C/C=C(/C)C(=O)O[C@H]1C(C)=C[C@]23C(=O)[C@@H](C=C(CO)[C@@H](O)[C@]12O)[C@H]1[C@@H](C[C@H]3C)C1(C)C [PEP005, Ingenol-3-angelate] | ≥ 67% | –
C/C=C(/C)C(=O)O[C@H]1C(C)=C[C@]23C(=O)[C@@H](C=C(COC(C)=O)[C@@H](O)[C@]12O)[C@H]1[C@@H](C[C@H]3C)C1(C)C [PEP008, 20-O-acetyl-ingenol-3-angelate] | ≥ 67% | –
CCCCCCCCCCCCCC(=O)O[C@@H]1[C@@H](C)[C@@]2(O)[C@@H](C=C(CO)C[C@]3(O)C(=O)C(C)=C[C@@H]23)[C@@H]2C(C)(C)[C@]12OC(C)=O [TPA] | – | > 3 fold
